Our source for the LD50 values is patent US4495199A, “Dioxolanic amine with pharmacological activity, its method of preparation, the pharmaceutical compositions containing same and their use in human medicine” (priority 1982, dated 1985).

The term LD50 denotes the dose at which mortality reaches 50%.

This series relates to mouse. Put plainly: Acute toxicity, oral, mouse. The class given is in vivo. The method, then: The respective lethal dose 50 was calculated according to the method of Litchfield and Wilcoxon (Jl. Pharmacol. Exptl. 96 99, 1949).

As for `CCCCc1oc2ccccc2c1C(=O)c1cc(I)c(OCCN(CC)CC)c(I)c1` [Amiodarona, reference compound], the LD50 is listed as greater than 4000 mg/kg.
